Three targets from the supplement of paper PMC12819154, “High-throughput peptide-centric local stability assay extends protein–ligand identification to membrane proteins, tissues and bacteria” (Nature Structural & Molecular Biology, 2025) can be followed below.

Amino acid sequences for entries named in this document (tags omitted). A change or cut given only in a name is not applied to a line headed by its entry.
UniProt P0ACN7: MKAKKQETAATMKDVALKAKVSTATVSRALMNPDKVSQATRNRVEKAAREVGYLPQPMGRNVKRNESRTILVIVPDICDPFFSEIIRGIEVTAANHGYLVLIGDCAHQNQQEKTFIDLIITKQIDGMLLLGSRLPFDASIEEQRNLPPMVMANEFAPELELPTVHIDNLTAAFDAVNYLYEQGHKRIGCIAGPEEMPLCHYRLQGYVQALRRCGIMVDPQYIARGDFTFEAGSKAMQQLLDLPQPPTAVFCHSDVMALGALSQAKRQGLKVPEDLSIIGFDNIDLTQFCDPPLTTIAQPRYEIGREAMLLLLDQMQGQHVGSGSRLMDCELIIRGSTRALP
UniProt P0A9U1: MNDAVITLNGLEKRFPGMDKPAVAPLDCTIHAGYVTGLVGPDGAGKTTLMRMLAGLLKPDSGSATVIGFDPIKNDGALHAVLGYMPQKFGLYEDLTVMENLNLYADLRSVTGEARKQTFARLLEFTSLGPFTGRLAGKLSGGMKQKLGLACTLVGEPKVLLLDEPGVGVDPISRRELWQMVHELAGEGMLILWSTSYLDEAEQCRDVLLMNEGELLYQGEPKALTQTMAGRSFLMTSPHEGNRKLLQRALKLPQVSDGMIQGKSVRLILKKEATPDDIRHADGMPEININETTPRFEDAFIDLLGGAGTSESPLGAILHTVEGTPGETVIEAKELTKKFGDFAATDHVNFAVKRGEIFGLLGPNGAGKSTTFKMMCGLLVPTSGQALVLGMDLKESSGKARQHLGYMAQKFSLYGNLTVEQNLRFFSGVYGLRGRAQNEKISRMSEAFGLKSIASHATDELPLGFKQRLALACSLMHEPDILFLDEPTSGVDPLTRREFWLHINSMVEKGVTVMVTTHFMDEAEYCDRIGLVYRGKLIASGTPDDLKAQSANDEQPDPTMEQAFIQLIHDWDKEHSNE
UniProt P0ACK2: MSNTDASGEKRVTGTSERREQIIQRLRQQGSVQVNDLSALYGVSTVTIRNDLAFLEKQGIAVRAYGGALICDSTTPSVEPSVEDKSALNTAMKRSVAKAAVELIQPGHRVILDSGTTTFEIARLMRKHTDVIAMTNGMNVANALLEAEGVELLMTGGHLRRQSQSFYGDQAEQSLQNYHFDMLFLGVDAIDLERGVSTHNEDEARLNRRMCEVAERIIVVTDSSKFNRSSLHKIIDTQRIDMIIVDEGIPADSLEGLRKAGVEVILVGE

Some of the results follow. Most entries show no effect beyond the scatter of the controls.

Compound in the assay: CC1(C)S[C@@H]2[C@H](NC(=O)[C@H](N)c3ccccc3)C(=O)N2[C@H]1C(=O)O [ampicillin]
Briefly: log2 fold change of tryptic peptide abundance, ligand vs vehicle (limited proteolysis) (log2 ratio); higher = more trypsin-susceptible (destabilized). The conditions noted are these: ligand concentration: 10 uM; sample: E. coli crude lysate.
In the case of “UniProt P0ACN7 (peptide sequence: AAREVGYLPQPMGR, peptide start residue: 47)”, the log2 fold change was -0.403. To “UniProt P0A9U1 (peptide sequence: FFSGVYGLR, peptide start residue: 425)” belongs -0.671. The same measure for “UniProt P0ACK2 (peptide sequence: MCEVAER, peptide start residue: 210)”: -0.308.
